Measurements: paper PMC7949058
These are yes or no findings as the source states them, for the method shown. Binding seen in cells or lysates may run through a third protein. Some results given as binding are weak or reduced against the parent protein; the word gives no strength.

Protein sequences, listed by entry. Tags and fused reporters are not part of them. Lines headed by an entry give the natural chain unless they say otherwise; changes in a name come on top.
UniProt P06239: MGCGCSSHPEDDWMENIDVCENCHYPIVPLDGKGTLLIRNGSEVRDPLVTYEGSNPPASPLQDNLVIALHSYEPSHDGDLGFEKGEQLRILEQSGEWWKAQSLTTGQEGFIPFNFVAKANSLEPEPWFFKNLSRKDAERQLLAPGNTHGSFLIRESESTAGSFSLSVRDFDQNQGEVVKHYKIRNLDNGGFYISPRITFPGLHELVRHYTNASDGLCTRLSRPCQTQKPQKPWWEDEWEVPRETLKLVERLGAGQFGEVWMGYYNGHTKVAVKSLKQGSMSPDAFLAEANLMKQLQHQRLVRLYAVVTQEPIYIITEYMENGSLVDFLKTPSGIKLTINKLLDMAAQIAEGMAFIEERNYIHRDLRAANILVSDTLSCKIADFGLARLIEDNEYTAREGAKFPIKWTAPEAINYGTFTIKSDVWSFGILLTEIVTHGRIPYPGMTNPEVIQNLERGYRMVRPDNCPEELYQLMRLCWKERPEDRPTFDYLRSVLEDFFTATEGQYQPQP
UniProt P43403: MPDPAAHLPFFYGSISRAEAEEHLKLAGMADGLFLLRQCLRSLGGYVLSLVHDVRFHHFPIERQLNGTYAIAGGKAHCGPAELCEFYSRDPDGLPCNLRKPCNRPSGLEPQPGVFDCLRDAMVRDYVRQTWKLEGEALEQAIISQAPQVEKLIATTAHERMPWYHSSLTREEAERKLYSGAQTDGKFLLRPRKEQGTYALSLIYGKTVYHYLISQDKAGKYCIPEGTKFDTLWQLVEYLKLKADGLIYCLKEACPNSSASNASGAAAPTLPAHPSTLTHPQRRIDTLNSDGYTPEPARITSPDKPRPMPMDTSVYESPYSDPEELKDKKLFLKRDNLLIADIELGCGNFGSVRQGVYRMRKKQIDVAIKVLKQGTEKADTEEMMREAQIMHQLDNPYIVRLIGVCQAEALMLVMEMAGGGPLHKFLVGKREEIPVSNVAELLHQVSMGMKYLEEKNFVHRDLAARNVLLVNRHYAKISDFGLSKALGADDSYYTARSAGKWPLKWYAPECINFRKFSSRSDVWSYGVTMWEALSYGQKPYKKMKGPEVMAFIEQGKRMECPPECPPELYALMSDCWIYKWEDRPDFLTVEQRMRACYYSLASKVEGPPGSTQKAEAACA

Molecular target: Lck (Src-family kinase) (human (endogenous in P116 Jurkat)) (UniProt P06239)
Assay: co-IP; Lck immunoprecipitated (1 ug anti-Lck clone 3A5, Protein A agarose, overnight 4 °C) from 500 ug of 1% DDM lysate of P116 Jurkat cells stably expressing WT or C564R ZAP-70; cells resting or stimulated with anti-CD3 antibody for the indicated times; ZAP-70 detected in eluates by immunoblot

binding	Substance
binds	C564R ZAP-70 (acylation-deficient mutant) (from UniProt P43403 1-619) (enzyme)
binds	wildtype ZAP-70 (CD3ζ-chain-associated protein kinase 70) (from UniProt P43403 1-619) (enzyme)
